{"source": "paper PMC9177958", "tested_on": "UPF3B-WT + UPF2L", "assay": "EMSA", "conditions": "2 mM MgCl2, UPF2L dissolves UPF3B-RNA oligomers, defined-stoichiometry complex; EMSA: 250 nM probe, 25 mM HEPES pH 7.45, 2 mM MgCl2, 150 mM NaCl, 0.5 mM TCEP, on ice; recombinant protein; protein details: 6xHis removed by TEV,6xHis removed by TEV; label: 5' HEX", "note": "The exact form of at least one protein or probe is not confirmed. At least one verdict rests on a figure or table, not on a statement of the authors.", "data": [{"sequence": "CACUGAUCUGACGCUGCACCUGGG [24mer ssRNA]", "values": [{"measurement": "binding result", "value": "binds"}]}]}
